Residue numbers refer to the chain shown, from its start. These are yes or no findings as the source states them, for the method shown. Binding seen in cells or lysates may run through a third protein. Where a sequence is shown, tags or fusion partners need not be part of it.
How the values were obtained:
[1] = biological target: T1, Pol1NT-2A (Pol1 1-351 with F58 and Y67 mutated, fused to Protein A) (S. cerevisiae) (UniProt P13382); assay: co-IP; Protein A-tagged tails isolated on IgG-coated magnetic beads from yeast cell extracts after DNase treatment (Universal nuclease 1,600 U/ml, 30 min, 4°C) to release histone complexes from chromatin; 100 mM Hepes-KOH pH 7.9, 100 mM KOAc; immunoblot; also in tel1∆ cells (Fig EV4B)
T1 sequence: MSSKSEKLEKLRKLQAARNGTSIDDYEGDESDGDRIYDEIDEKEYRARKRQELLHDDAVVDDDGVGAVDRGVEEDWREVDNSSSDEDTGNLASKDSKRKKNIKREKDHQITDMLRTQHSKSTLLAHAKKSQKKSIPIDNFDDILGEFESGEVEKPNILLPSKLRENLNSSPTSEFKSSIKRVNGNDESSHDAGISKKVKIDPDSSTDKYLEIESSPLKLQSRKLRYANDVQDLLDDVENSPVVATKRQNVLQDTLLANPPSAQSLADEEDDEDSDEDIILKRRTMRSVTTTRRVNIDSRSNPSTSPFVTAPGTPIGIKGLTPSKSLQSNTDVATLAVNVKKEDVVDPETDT

The chains behind the UniProt entries cited, without tags or fusion partners. Where a name states a change or a piece, a line headed by the entry shows the natural chain unless it says otherwise.
UniProt P32558: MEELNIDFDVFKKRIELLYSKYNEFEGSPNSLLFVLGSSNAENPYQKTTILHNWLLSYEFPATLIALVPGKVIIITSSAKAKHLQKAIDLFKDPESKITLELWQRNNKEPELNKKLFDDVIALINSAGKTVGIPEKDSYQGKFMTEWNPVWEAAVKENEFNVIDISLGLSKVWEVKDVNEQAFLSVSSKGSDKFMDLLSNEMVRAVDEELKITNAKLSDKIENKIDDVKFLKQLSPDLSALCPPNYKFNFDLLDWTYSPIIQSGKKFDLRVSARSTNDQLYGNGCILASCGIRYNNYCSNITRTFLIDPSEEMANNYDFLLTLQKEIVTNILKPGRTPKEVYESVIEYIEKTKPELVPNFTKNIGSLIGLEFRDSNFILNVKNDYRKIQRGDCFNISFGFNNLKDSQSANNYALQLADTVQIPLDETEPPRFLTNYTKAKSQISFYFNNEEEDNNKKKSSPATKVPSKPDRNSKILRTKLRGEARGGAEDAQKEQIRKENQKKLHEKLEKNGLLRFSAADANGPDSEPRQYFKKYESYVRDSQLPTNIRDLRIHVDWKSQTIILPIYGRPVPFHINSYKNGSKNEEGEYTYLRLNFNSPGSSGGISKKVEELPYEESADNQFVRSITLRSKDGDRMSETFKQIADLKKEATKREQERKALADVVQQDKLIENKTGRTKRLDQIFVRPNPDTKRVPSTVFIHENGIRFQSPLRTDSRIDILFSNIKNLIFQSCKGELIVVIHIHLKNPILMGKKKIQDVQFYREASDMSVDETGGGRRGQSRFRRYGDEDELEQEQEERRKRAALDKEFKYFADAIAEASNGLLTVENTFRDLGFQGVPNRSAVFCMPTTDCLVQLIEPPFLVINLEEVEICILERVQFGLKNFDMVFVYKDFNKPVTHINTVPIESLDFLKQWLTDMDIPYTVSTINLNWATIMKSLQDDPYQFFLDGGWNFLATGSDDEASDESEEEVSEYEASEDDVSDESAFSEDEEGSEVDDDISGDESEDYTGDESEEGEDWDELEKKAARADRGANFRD

[2] = biological target: T2, Pol1NT-2A2 (Pol1 1-351 with F58A and D62A, fused to Protein A) (S. cerevisiae) (UniProt P13382); assay: as above
T2 sequence: T1 sequence with D62A, A67Y

binding [1]: no binding
binding [2]: no binding
Substance: FACT (histone chaperone; Spt16 and Pob3), budding yeast (from UniProt P32558 1-1035; Q04636 1-552) (complex)
